Drawing on paper PMC4005691, this text covers binding for two substances.

Chains of the proteins cited; added tags and fusions are not shown.
UniProt P12270: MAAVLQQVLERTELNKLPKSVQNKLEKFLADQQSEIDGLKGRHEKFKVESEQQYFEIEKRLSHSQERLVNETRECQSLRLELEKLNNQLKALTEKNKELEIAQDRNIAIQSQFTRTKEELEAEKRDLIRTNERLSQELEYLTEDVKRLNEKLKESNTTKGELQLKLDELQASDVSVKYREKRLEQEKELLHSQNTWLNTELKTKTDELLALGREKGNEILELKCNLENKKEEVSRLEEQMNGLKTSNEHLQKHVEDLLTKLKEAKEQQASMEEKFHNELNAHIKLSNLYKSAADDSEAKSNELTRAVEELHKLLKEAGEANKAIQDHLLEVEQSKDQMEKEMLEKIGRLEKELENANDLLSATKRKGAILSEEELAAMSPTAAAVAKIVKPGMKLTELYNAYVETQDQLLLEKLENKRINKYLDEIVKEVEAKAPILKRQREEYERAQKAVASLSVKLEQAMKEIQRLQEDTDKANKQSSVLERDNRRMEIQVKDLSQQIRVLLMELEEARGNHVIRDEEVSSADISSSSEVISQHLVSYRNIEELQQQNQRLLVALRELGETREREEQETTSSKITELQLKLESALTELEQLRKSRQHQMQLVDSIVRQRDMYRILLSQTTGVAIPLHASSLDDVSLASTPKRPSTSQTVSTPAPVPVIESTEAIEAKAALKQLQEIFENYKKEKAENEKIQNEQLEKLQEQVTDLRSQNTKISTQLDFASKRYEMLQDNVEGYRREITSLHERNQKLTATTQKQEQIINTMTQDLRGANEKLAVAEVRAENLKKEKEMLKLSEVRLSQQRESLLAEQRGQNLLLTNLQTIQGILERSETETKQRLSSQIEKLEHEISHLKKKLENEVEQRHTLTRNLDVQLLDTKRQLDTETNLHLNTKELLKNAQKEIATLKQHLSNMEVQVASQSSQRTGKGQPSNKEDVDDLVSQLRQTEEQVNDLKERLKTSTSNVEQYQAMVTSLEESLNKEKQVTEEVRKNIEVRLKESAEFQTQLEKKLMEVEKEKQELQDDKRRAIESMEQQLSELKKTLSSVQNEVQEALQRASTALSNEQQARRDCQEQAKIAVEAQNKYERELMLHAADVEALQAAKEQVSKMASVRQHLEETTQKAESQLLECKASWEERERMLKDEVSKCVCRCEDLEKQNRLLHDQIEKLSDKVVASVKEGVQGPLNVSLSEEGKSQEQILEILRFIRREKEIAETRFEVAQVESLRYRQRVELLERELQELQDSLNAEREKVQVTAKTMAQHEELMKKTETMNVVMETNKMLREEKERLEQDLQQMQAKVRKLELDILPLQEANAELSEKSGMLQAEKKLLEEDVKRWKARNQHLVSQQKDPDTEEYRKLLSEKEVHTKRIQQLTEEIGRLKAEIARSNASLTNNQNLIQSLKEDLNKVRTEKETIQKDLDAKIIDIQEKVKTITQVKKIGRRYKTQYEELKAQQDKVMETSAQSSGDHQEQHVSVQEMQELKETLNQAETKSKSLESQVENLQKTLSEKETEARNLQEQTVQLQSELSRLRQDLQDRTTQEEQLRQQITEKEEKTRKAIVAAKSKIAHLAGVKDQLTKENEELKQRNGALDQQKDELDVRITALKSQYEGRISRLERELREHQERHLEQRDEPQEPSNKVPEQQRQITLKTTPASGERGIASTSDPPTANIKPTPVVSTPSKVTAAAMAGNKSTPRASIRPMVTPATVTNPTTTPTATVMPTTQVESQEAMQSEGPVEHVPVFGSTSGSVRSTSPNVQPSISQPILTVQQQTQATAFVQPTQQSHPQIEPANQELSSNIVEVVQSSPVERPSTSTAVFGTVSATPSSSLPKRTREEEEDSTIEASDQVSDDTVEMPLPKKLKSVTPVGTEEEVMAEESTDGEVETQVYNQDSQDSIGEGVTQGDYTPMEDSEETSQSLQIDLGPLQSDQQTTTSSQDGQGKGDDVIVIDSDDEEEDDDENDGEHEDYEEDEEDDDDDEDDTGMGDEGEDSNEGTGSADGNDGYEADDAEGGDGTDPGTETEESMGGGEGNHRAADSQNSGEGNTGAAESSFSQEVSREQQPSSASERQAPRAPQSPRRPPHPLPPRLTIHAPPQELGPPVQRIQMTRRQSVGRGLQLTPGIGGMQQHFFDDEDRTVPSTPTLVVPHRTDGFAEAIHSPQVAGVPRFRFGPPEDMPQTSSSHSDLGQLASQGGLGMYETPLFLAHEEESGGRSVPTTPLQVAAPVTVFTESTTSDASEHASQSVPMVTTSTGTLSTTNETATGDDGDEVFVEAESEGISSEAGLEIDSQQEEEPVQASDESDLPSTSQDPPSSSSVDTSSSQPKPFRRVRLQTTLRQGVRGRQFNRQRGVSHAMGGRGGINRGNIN
UniProt O60318: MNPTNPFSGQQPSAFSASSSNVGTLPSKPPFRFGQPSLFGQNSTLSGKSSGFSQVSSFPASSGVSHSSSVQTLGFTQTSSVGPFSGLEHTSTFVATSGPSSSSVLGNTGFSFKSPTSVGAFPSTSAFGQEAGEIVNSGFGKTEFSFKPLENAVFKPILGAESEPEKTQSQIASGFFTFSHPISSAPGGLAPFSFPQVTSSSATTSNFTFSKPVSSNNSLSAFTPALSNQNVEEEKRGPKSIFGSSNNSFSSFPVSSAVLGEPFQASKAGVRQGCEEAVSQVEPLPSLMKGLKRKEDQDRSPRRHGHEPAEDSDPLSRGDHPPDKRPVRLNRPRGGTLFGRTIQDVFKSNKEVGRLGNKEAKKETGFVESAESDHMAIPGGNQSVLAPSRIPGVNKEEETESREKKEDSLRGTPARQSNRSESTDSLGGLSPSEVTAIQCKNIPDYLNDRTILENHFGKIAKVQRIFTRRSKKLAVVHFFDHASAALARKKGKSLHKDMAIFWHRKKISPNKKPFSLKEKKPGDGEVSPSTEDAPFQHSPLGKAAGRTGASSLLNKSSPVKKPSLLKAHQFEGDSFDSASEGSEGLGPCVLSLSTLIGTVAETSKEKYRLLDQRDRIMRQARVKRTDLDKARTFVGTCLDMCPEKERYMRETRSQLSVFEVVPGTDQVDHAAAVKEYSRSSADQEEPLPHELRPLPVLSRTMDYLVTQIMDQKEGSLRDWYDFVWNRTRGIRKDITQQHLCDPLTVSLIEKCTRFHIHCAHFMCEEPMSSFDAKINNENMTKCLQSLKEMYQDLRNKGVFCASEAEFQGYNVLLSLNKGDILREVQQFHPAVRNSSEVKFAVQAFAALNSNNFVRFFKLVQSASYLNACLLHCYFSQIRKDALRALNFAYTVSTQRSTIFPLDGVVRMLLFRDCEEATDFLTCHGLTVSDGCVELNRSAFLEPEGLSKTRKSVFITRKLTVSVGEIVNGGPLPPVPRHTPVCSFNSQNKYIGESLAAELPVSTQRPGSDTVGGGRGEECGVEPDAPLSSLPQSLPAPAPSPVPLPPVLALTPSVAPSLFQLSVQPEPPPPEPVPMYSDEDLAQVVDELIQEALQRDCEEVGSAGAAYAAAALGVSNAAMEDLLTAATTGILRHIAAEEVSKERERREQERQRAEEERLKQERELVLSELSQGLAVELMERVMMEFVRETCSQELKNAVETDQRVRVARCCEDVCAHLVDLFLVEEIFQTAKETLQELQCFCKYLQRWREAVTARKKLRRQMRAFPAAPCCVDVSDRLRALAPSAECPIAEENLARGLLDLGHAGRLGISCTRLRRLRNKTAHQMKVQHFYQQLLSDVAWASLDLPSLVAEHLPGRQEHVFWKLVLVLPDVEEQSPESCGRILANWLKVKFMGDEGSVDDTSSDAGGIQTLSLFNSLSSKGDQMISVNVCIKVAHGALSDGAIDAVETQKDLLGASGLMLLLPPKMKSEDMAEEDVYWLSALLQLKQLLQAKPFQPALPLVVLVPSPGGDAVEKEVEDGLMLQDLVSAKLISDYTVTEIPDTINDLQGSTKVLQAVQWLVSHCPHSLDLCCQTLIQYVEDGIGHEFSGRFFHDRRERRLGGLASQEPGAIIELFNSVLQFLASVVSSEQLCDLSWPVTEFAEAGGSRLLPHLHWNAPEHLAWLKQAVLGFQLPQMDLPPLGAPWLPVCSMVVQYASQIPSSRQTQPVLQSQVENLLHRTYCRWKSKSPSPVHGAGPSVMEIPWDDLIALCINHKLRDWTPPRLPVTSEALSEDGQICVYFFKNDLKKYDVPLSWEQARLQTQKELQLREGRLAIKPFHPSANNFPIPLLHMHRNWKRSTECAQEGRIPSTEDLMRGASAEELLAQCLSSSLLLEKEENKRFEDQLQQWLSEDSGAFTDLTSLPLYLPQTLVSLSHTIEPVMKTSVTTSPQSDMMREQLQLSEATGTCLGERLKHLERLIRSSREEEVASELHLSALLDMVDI

These are yes or no findings as the source states them, for the method shown. In cells and extracts the contact can be indirect. Some entries that bind do so weakly or less than the wild type.

Test [1] deals with TPR (human (endogenous in HCT116)) (UniProt P12270). Put plainly: co-IP; endogenous proteins immunoprecipitated from nuclear extracts of HCT116 cells with antibodies against TPR or against GANP, blotted for GANP and TPR; GANP IP with or without RNase treatment.
In test [2] the target is GANP (germinal-centre associated nuclear protein) (human (endogenous in HCT116)) (UniProt O60318). Described as above.

On to “GANP (germinal-centre associated nuclear protein) (from UniProt O60318 1-1980)”, for which, in test [1], the binding entry is reported as “binds”. As to TPR (from UniProt P12270 1-2363), in test [2], the binding entry is given as “binds”.
